Structures can show the parent of a compound that is named as a salt.
Molecular target: 5-hydroxytryptamine receptor 7 (Rattus norvegicus, UniProt P32305)

Sequences of proteins named here, by UniProt entry; tags and fusion partners are left off.
UniProt P32305, whole entry: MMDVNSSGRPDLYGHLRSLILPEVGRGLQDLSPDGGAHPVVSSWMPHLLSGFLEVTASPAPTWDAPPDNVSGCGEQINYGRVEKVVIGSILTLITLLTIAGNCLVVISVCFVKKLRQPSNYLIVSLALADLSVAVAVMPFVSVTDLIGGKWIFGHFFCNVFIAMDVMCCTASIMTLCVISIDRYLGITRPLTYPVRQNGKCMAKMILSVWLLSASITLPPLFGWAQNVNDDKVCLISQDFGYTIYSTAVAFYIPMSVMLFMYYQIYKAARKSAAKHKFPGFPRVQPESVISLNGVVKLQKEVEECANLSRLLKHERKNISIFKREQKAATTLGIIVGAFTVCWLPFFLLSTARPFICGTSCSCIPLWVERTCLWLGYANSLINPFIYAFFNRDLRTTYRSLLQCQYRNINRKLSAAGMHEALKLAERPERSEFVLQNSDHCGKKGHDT

OCCN1CCN(CCCN2c3ccccc3Sc3ccc(C(F)(F)F)cc32)CC1 [2-[4-[3-[2-(trifluoromethyl)phenothiazin-10-yl]propyl]piperazin-1-yl]ethanol;hydrochloride]
Ki: 8 nM

From BindingDB's records for PubMed 7908055 (Case Western Reserve University, 1994)
